Measured values taken from article PMC6868212.
No constants are given. Whether binding was seen depends on the method and setting. Binding seen in cells or lysates may run through a third protein. Some results given as binding are weak or reduced against the parent protein; the word gives no strength.

Protein sequences, listed by entry. Tags and fused reporters are not part of them.
UniProt Q9BPZ7: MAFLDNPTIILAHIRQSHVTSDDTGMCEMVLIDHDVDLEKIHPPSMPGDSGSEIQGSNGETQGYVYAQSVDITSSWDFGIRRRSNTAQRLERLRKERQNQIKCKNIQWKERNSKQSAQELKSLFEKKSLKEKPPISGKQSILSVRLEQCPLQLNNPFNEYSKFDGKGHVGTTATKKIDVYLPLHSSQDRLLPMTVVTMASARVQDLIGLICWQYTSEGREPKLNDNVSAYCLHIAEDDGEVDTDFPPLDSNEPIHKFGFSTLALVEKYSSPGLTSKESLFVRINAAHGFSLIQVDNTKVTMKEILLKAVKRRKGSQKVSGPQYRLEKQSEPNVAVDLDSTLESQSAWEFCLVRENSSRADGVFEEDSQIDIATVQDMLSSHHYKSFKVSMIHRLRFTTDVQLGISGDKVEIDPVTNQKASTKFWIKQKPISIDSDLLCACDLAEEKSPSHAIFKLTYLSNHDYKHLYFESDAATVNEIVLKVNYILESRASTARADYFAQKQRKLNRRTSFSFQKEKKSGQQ

Key:
[1] = biological target: Sin1 (UniProt Q9BPZ7); assay: co-IP; transfection/Co-immunoprecipitation experiment; who was precipitated is not given
[2] = biological target: Sin1 (endogenous) (human (endogenous in 293T)) (UniProt Q9BPZ7); assay: co-IP; endogenous proteins in 293T cells; MG132 added 12 h prior to cell harvest for immunoprecipitation; western blot

Row | Binder | binding [1] | binding [2]
1 | SOCS6 (protein, UniProt O14544 1-535) MKKISLKTLRKSFNLNKSKEETDFMVVQQPSLASDFGKDDSLFGSCYGKDMASCDINGEDEKGGKNRSKSESLMGTLKRRLSAKQKSKGKAGTPSGSSADEDTFSSSSAPIVFKDVRAQRPIRSTSLRSHHYSPAPWPLRPTNSEETCIKMEVRVKALVHSSSPSPALNGVRKDFHDLQSETTCQEQANSLKSSASHNGDLHLHLDEHVPVVIGLMPQDYIQYTVPLDEGMYPLEGSRSYCLDSSSPMEVSAVPPQVGGRAFPEDESQVDQDLVVAPEIFVDQSVNGLLIGTTGVMLQSPRAGHDDVPPLSPLLPPMQNNQIQRNFSGLTGTEAHVAESMRCHLNFDPNSAPGVARVYDSVQSSGPMVVTSLTEELKKLAKQGWYWGPITRWEAEGKLANVPDGSFLVRDSSDDRYLLSLSFRSHGKTLHTRIEHSNGRFSFYEQPDVEGHTSIVDLIEHSIRDSENGAFCYSRSRLPGSATYPVRLTNPVSRFMQVRSLQYLCRFVIRQYTRIDLIQKLPLPNKMKDYLQEKHY | binds | 
2 | SOCS6 (endogenous) (protein, UniProt O14544 1-535) MKKISLKTLRKSFNLNKSKEETDFMVVQQPSLASDFGKDDSLFGSCYGKDMASCDINGEDEKGGKNRSKSESLMGTLKRRLSAKQKSKGKAGTPSGSSADEDTFSSSSAPIVFKDVRAQRPIRSTSLRSHHYSPAPWPLRPTNSEETCIKMEVRVKALVHSSSPSPALNGVRKDFHDLQSETTCQEQANSLKSSASHNGDLHLHLDEHVPVVIGLMPQDYIQYTVPLDEGMYPLEGSRSYCLDSSSPMEVSAVPPQVGGRAFPEDESQVDQDLVVAPEIFVDQSVNGLLIGTTGVMLQSPRAGHDDVPPLSPLLPPMQNNQIQRNFSGLTGTEAHVAESMRCHLNFDPNSAPGVARVYDSVQSSGPMVVTSLTEELKKLAKQGWYWGPITRWEAEGKLANVPDGSFLVRDSSDDRYLLSLSFRSHGKTLHTRIEHSNGRFSFYEQPDVEGHTSIVDLIEHSIRDSENGAFCYSRSRLPGSATYPVRLTNPVSRFMQVRSLQYLCRFVIRQYTRIDLIQKLPLPNKMKDYLQEKHY |  | binds
